According to patent US20250144032A1, “POLY(BETA-AMINO ESTER) MICROPARTICLES FOR MICRONUTRIENT FORTIFICATION” (Massachusetts Institute of Technology, priority 2021, published 2025):
For part of these data: At least one read-out could not be matched to a standard name with certainty. For part of these data: For at least one compound, name, drawing or mass did not settle the structure.

Legend:
Type in all cases: physicochemical
[1] = Long-term storage stability of VA under accelerated condition (40 °C, 75% humidity); details: 1 month
[2] = Long-term storage followed by 2-hour boiling in water; details: 40 °C, 75% humidity, then boiling water 2 h
[3] = Boiling stability of micronutrients in water at 100 °C (simulated cooking); details: individually encapsulated (10% wt) or free form

Structure (SMILES): CCCCCCCCCCCCCCCC(=O)OC/C=C(C)/C=C/C=C(C)/C=C/C1=C(C)CCCC1(C)C [VA, retinyl palmitate]
- VA recovery after one month of storage [1]: complete degradation
- VA recovery after 1-month storage followed by 2-hour boiling [2]: did not survive boiling conditions

Structure (SMILES): Cc1c(C)c2c(c(C)c1O)CC[C@@](C)(CCC[C@H](C)CCC[C@H](C)CCCC(C)C)O2 [VE, tocopherol]
- VE recovery after 2-hour boiling in water [3]: 80%
